Measurements published in the supplement of paper PMC10849652.
The other results are listed elsewhere or left out.

By UniProt entry, the sequences of proteins in these tests, tags left out. Where a name states a change or a piece, a line headed by the entry shows the natural chain unless it says otherwise.
UniProt Q6GMV2: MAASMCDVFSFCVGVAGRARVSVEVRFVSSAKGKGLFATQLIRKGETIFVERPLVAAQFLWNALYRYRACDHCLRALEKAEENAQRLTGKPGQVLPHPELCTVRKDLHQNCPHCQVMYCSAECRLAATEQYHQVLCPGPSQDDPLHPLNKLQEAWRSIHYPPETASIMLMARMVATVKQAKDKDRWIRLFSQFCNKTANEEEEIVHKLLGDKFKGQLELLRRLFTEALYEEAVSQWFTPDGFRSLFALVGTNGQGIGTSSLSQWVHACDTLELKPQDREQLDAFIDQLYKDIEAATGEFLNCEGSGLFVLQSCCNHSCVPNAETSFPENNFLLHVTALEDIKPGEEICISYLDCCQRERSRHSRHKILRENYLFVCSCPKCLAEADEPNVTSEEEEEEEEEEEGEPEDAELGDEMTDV
UniProt P08047, whole entry, looked up: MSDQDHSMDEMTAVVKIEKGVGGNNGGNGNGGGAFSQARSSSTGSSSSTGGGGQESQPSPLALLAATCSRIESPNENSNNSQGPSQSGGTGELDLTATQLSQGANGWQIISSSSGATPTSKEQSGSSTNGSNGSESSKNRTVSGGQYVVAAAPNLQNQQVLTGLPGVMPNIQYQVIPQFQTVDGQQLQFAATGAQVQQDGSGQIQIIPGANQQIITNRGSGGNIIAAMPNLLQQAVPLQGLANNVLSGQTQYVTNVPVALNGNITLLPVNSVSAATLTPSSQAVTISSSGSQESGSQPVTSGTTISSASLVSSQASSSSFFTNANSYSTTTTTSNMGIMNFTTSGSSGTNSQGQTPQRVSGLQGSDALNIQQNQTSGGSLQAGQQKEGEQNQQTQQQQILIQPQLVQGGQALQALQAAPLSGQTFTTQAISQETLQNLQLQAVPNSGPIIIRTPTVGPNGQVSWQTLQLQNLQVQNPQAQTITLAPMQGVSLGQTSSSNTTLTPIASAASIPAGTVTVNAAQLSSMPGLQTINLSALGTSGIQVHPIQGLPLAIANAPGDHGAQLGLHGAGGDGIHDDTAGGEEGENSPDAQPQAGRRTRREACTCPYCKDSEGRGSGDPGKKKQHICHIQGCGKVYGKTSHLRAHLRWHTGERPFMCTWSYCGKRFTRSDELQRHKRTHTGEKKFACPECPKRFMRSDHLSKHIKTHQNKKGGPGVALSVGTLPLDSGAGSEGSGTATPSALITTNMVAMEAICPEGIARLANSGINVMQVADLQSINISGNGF
UniProt P0C7P3: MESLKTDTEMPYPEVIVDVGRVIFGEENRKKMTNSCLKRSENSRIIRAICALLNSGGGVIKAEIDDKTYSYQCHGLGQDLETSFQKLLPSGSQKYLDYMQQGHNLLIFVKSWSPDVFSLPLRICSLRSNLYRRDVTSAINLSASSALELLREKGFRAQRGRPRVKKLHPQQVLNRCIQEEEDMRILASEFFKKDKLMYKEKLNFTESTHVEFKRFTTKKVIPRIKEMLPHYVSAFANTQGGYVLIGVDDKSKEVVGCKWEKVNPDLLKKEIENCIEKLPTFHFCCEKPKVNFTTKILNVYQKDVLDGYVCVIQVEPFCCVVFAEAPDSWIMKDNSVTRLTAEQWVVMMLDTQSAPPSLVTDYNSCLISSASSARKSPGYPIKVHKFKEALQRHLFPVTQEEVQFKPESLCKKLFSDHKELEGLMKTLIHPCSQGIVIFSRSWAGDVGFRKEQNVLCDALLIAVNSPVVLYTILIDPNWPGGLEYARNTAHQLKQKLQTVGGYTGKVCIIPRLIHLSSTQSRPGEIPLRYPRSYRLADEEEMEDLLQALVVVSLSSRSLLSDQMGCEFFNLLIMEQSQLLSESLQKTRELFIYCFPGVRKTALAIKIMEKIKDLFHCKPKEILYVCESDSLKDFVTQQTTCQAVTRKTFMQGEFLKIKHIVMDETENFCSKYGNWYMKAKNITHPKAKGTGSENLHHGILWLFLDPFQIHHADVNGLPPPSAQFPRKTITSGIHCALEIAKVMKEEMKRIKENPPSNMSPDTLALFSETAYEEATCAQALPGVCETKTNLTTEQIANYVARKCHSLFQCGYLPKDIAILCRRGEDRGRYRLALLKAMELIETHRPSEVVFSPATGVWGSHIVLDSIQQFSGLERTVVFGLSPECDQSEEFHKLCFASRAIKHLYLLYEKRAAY
UniProt P35610: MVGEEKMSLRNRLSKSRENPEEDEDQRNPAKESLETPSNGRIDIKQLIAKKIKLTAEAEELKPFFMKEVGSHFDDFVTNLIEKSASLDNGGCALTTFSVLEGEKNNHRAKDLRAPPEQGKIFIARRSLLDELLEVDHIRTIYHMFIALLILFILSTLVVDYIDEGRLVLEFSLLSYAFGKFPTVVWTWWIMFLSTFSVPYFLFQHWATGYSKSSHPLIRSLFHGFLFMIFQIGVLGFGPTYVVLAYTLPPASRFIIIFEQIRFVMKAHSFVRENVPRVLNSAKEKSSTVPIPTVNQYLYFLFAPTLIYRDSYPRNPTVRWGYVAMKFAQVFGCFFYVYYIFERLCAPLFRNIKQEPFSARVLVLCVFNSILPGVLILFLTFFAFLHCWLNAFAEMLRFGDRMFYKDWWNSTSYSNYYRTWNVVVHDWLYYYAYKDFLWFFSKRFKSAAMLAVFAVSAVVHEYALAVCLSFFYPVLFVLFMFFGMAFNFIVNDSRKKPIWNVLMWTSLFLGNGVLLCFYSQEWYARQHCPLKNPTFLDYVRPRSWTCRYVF
UniProt O60749: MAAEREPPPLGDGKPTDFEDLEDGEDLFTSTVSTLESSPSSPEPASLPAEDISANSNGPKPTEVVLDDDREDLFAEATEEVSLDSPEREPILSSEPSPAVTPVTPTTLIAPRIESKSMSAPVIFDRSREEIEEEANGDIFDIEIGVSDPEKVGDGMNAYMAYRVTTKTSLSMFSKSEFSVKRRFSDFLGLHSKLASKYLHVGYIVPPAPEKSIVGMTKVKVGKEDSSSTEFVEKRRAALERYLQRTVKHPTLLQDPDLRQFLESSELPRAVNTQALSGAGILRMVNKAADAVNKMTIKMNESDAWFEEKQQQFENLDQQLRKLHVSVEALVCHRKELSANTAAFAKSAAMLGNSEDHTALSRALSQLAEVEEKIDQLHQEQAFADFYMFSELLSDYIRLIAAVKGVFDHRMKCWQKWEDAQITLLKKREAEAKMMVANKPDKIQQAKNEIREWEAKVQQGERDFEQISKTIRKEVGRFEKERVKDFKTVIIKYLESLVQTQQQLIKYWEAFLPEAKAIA
UniProt Q9UPR3: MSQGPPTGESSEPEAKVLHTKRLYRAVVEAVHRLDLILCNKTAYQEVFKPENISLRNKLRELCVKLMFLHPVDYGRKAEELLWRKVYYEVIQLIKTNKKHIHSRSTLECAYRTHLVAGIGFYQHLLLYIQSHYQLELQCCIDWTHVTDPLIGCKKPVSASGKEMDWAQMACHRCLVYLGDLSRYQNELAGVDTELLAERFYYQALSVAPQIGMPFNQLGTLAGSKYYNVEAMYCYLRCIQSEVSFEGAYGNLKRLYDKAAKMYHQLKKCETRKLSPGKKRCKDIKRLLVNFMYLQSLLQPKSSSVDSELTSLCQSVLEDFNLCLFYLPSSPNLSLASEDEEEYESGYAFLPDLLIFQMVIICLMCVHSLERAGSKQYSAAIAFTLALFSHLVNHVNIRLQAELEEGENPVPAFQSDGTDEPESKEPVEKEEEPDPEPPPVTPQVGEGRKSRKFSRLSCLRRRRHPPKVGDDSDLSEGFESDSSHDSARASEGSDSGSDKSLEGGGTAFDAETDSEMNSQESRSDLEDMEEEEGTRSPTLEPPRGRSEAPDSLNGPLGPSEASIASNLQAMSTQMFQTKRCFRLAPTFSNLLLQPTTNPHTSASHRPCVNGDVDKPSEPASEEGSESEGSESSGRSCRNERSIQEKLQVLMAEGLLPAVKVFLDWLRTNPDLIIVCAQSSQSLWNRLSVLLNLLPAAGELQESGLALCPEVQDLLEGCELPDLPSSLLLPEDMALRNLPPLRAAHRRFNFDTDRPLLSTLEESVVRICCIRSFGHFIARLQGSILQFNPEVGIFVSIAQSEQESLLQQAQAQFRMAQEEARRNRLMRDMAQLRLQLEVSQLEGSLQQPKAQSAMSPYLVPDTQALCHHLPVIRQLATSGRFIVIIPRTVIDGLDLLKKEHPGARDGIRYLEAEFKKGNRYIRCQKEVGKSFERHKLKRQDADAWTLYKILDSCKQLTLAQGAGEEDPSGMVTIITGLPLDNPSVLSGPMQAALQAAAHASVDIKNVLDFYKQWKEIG
UniProt Q9NRG4: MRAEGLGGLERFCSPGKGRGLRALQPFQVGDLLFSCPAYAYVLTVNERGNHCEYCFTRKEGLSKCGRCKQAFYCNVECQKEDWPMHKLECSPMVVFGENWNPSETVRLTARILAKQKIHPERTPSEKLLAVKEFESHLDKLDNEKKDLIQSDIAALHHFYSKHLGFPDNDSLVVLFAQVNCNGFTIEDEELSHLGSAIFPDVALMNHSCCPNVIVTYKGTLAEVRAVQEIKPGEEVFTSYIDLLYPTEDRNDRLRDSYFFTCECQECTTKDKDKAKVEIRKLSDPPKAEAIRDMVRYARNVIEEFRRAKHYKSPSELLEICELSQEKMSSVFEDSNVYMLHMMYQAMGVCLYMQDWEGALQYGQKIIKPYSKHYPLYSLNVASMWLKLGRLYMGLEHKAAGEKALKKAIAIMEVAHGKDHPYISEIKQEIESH
UniProt Q96DI7: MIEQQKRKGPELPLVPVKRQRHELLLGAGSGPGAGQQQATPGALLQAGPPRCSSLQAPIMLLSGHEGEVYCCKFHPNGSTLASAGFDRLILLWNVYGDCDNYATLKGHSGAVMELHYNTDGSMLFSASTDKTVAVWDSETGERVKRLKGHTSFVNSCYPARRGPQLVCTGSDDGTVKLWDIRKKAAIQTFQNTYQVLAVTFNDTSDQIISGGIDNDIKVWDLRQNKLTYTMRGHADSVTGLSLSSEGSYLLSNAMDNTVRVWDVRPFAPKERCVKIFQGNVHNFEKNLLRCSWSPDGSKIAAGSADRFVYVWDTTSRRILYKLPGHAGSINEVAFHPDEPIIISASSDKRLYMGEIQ
UniProt Q9Y5W9: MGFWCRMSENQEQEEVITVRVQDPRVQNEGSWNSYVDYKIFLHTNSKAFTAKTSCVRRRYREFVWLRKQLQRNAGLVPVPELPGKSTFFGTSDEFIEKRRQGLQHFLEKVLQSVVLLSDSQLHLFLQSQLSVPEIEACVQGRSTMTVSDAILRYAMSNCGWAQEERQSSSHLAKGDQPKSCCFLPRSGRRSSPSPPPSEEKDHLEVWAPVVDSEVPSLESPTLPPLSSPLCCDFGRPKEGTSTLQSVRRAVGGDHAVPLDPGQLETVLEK
UniProt Q92581: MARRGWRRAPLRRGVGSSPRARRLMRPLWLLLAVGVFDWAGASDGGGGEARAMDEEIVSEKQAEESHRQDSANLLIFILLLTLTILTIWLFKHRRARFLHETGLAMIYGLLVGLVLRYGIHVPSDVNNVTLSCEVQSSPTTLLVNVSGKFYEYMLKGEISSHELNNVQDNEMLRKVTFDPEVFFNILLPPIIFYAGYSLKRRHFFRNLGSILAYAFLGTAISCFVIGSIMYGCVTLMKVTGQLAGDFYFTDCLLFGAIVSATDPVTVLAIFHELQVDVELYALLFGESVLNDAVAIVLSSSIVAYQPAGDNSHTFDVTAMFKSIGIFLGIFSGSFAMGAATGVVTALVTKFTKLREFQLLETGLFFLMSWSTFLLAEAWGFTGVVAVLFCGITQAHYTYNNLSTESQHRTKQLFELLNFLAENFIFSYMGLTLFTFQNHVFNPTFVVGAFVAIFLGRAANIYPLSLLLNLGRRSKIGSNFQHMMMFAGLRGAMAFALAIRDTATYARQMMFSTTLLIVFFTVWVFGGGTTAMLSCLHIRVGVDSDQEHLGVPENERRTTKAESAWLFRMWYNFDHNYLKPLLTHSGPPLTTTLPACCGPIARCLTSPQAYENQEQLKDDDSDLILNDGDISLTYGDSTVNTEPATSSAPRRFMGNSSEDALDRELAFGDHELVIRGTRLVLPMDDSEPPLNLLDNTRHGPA
UniProt Q92536: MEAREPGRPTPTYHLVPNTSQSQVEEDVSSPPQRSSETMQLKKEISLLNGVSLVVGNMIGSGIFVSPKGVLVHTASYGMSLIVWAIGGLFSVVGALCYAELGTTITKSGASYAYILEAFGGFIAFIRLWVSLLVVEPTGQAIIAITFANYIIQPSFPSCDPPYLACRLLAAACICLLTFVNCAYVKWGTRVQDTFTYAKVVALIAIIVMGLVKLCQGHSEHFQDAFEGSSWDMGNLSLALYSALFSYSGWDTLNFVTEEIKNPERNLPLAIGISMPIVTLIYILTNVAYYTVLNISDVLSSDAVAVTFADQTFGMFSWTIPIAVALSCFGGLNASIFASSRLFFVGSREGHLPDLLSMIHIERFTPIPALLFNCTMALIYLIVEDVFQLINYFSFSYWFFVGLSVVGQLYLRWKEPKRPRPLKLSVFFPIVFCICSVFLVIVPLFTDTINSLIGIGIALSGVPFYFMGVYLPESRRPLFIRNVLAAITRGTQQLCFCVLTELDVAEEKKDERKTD

Experiments:
Assay in all cases: log2 fold change, soluble protein after heating vs DMSO (PISA); higher = thermal stabilisation; K562 cells, 10 uM, 30 min; active = over 0.2 and 3.5 SD of the protein, either way, in both replicates (recomputed)
[1] = compound: CC1=C(C=C(C=C1)NC(=O)C2=CC(=CC=C2)C(C)(C)C#N)NC3=CC4=C(C=C3)N=CN(C4=O)C
How it was run: (§1)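 K562 cells at 2×10^6 cells/mL were given 10 μM compound for 30 min. Aliquots then went through 3 min of heating across 48°C-58°C, were pooled, and were extracted in PBS with 0.5% NP-40 at 4°C, and the supernatant after 21,000xg for 90 min was quantified by TMTpro 16plex LC-MS/MS with channel sums equalised. Thermal stability relative to control samples, from duplicates, is given as log2 fold change.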

[2] = compound: CC1=C(C=C(C=C1)NC(=O)C2=CC(=CC=C2)N(C)C)NC(=O)C3=CC=C(C=C3)O
How it was run: as §1

[3] = compound: CC1=CC=C(C=C1)SC2=C3C=C(SC3=CN=C2)C(=O)N
How it was run: as §1

[4] = compound: CC1=NC(=CC=C1)C2=C(N=C(N2)C(C)(C)C)C3=CC4=NC=CN=C4C=C3
How it was run: as §1

[5] = compound: CCCCN(Cc1ccc(C(=O)NO)cc1)C(=O)Nc1ccccc1 [Nexturastat A]
How it was run: as §1

[6] = compound: CCCS(=O)(=O)Nc1ccc(F)c(C(=O)c2c[nH]c3ncc(-c4ccc(Cl)cc4)cc23)c1F [vemurafenib]
How it was run: as §1

[7] = compound: CCCS(=O)(=O)Nc1ccc(F)c(C(=O)c2c[nH]c3ncc(Cl)cc23)c1F
How it was run: as §1

[8] = compound: CCCc1cc(C)[nH]c(=O)c1CNC(=O)c1cc(-c2ccnc(N3CCN(C)CC3)c2)cc2c1cnn2C(C)C
How it was run: as §1

[9] = compound: CCN(CC)Cc1ccc2cc(COC(=O)Nc3ccc(C(=O)NO)cc3)ccc2c1 [givinostat]
How it was run: as §1

[10] = compound: CCN(CCCOc1ccc2c(Nc3cc(CC(=O)Nc4cccc(F)c4)[nH]n3)ncnc2c1)CCOP(=O)(O)O [barasertib]
How it was run: as §1

[11] = compound: CC[C@@H]1C(=O)N(C)c2cnc(Nc3ccc(C(=O)NC4CCN(C)CC4)cc3OC)nc2N1C1CCCC1
How it was run: as §1

[12] = compound: CC[C@@H]1C(=O)N(C)c2cnc(Nc3ccc(C(=O)N[C@H]4CC[C@H](N5CCN(CC6CC6)CC5)CC4)cc3OC)nc2N1C(C)C [volasertib]
How it was run: as §1

[13] = compound: CC[C@H](C)N1C=C(C2=C(C=C(C=C21)C3=CN=C(C=C3)N4CCNCC4)C(=O)NCC5=C(C=C(NC5=O)C)C)C
How it was run: as §1

[14] = compound: CC[C@H](C)[C@@H](C(=O)N[C@@H]([C@@H](C)O)C(=O)N[C@@H](CC(C)C)C(=O)[C@]1(CO1)C)NC(=O)[C@H]([C@@H](C)CC)N(C)C(=O)C [epoxomicin]
How it was run: as §1

[15] = compound: CCn1c(C(=O)N(C2CC2)C2CC2)cc2c3c(ncn3C)c(Nc3cc(C)n(C)n3)nc21
How it was run: as §1

[16] = compound: CCn1cc(-c2ccnc3[nH]c(-c4cccc(CN(C)C)c4)cc23)c(-c2ccc(NC(=O)N(C)C)cc2)n1
How it was run: as §1

[17] = compound: CN(C)CC(=O)Nc1ccc2[nH]c(=O)c3ccccc3c2c1
How it was run: as §1

[18] = compound: CN(CCOC1=CC=C(C=C1)C[C@H]2C(=O)NC(=O)S2)C3=CC=CC=N3 (racemic) [rosiglitazone]
How it was run: as §1

[19] = compound: CN1C2=C(C3=C1C(=O)N(N=C3)CC4=CC(=CC=C4)N)SC(=C2)S(=O)C
How it was run: as §1

[20] = compound: CN1CCC(CNc2ccc3ncc(-c4cccc(OC(F)(F)F)c4)n3n2)CC1
How it was run: as §1

Target | log2 fold change [1] | log2 fold change [2] | log2 fold change [3] | log2 fold change [4] | log2 fold change [5] | log2 fold change [6] | log2 fold change [7] | log2 fold change [8] | log2 fold change [9] | log2 fold change [10] | log2 fold change [11] | log2 fold change [12] | log2 fold change [13] | log2 fold change [14] | log2 fold change [15] | log2 fold change [16] | log2 fold change [17] | log2 fold change [18] | log2 fold change [19] | log2 fold change [20]
SMYD5 (UniProt Q6GMV2) | inactive: 0.004 | inactive: 0.041 | inactive: 0 | inactive: 0.069 | inactive: -0.152 | inactive: -0.022 | inactive: 0.03 | inactive: 0.019 | inactive: -0.069 | inactive: 0.013 | inactive: -0.02 | inactive: -0.104 | inactive: 0.059 | inactive: 0.088 | inactive: -0.01 | inactive: 0.032 | inactive: 0.008 | inactive: -0.017 | inactive: -0.081 | inactive: 0.045
SP1 (UniProt P08047) | inactive: 0.023 | inactive: -0.068 | inactive: -0.067 | inactive: -0.033 | inactive: 0.034 | inactive: -0.017 | inactive: -0.069 | inactive: -0.018 | inactive: -0.114 | inactive: 0.011 | inactive: 0.047 | inactive: 0.102 | inactive: 0 | inactive: -0.032 | – | inactive: -0.003 | inactive: -0.042 | – | inactive: 0.006 | inactive: -0.063
SLFN14 (UniProt P0C7P3) | inactive: -0.237 | inactive: -0.222 | inactive: -0.143 | inactive: -0.477 | inactive: -0.098 | inactive: -0.533 | inactive: -0.126 | inactive: 0.054 | – | inactive: 0.051 | – | inactive: 0.424 | inactive: -0.015 | inactive: -0.26 | – | inactive: 0.045 | inactive: -0.286 | inactive: -0.116 | inactive: 0.508 | inactive: 0.029
SMARCA5 (UniProt O60264) | inactive: 0.042 | inactive: -0.041 | inactive: 0.038 | inactive: 0.014 | inactive: 0.107 | inactive: 0.085 | inactive: 0.129 | inactive: 0.032 | inactive: 0.149 | inactive: 0.109 | inactive: -0.242 | inactive: -0.333 | inactive: 0.045 | inactive: 0.092 | – | inactive: -0.06 | inactive: 0.053 | – | inactive: 0.121 | inactive: 0.076
SOAT1 (UniProt P35610) | inactive: 0.259 | inactive: -0.044 | inactive: 0.038 | inactive: -0.03 | inactive: 0.002 | inactive: -0.036 | inactive: -0.015 | inactive: -0.137 | inactive: 0.152 | inactive: 0.001 | inactive: -0.017 | inactive: 0.053 | inactive: -0.094 | inactive: 0.029 | – | inactive: 0.013 | inactive: -0.04 | – | inactive: -0.051 | inactive: -0.09
SORT1 (UniProt Q99523) | inactive: -0.042 | inactive: 0.013 | inactive: -0.006 | inactive: -0.012 | inactive: -0.038 | inactive: -0.003 | inactive: -0.008 | inactive: -0.072 | inactive: -0.003 | inactive: 0.015 | active: -0.984 | active: -1.34 | inactive: -0.013 | inactive: 0.032 | – | inactive: 0.007 | inactive: 0.003 | – | inactive: -0.028 | active: -0.582
SNX2 (UniProt O60749) | inactive: 0.009 | inactive: -0.022 | inactive: 0.02 | inactive: 0.012 | inactive: 0.021 | inactive: 0.013 | inactive: 0.052 | inactive: -0.036 | inactive: 0.073 | inactive: 0.037 | inactive: -0.129 | inactive: -0.053 | inactive: 0.093 | inactive: 0.026 | – | inactive: -0.08 | inactive: 0.005 | – | inactive: -0.003 | active: -0.332
SMG5 (UniProt Q9UPR3) | inactive: -0.12 | inactive: 0.014 | inactive: 0.141 | inactive: 0.024 | inactive: 0.185 | inactive: 0.061 | inactive: 0.031 | inactive: -0.271 | inactive: 0 | inactive: 0.018 | – | inactive: -0.32 | inactive: 0.077 | inactive: -0.066 | inactive: 0.054 | – | inactive: 0.052 | inactive: 0.032 | inactive: 0.29 | –
SNRNP27 (UniProt Q8WVK2) | inactive: -0.015 | inactive: -0.006 | inactive: -0.008 | inactive: 0.007 | inactive: -0.02 | inactive: -0.031 | inactive: -0.021 | inactive: -0.361 | inactive: -0.032 | inactive: -0.039 | inactive: 0.029 | inactive: 0.014 | inactive: -0.08 | inactive: 0.01 | – | inactive: 0.038 | inactive: 0.005 | – | inactive: 0.051 | inactive: -0.032
SLC7A6OS (UniProt Q96CW6) | inactive: -0.065 | inactive: -0.033 | inactive: -0.042 | inactive: -0.075 | inactive: -0.031 | inactive: -0.015 | inactive: 0.013 | inactive: -0.025 | inactive: 0.017 | inactive: 0.01 | inactive: -0.027 | inactive: -0.084 | inactive: -0.042 | inactive: 0.01 | – | inactive: -0.038 | inactive: 0.004 | – | inactive: -0.05 | inactive: 0.055
SMYD2 (UniProt Q9NRG4) | inactive: -0.041 | inactive: -0.02 | inactive: 0.072 | inactive: 0.021 | inactive: 0.113 | inactive: 0.135 | inactive: 0.099 | inactive: 0.177 | inactive: 0.053 | inactive: -0.043 | – | inactive: -0.489 | – | inactive: 0.035 | inactive: -0.034 | inactive: 0.065 | inactive: 0.047 | inactive: -0.033 | inactive: 0.068 | inactive: -0.049
SNRNP40 (UniProt Q96DI7) | inactive: 0.01 | inactive: 0.001 | inactive: -0.06 | inactive: -0.023 | inactive: 0 | inactive: -0.027 | inactive: -0.046 | inactive: -0.037 | inactive: -0.035 | inactive: -0.04 | inactive: 0.067 | inactive: 0.059 | inactive: 0.026 | inactive: -0.05 | – | inactive: -0.033 | inactive: -0.012 | – | inactive: -0.029 | active: 0.261
SNX11 (UniProt Q9Y5W9) | inactive: -0.008 | inactive: 0.012 | inactive: -0.003 | inactive: 0.043 | inactive: 0.014 | inactive: 0.043 | inactive: 0.025 | inactive: 0.022 | inactive: -0.006 | inactive: 0.019 | inactive: -0.167 | inactive: -0.324 | inactive: 0.066 | inactive: -0.031 | – | inactive: -0.022 | inactive: -0.024 | – | inactive: 0.167 | active: -0.646
SLC9A6 isoform 2 (UniProt Q92581) | inactive: -0.035 | inactive: 0.024 | inactive: -0.002 | inactive: -0.012 | inactive: -0.061 | inactive: 0.024 | inactive: 0 | inactive: -0.063 | inactive: -0.01 | inactive: 0.018 | inactive: 0.047 | inactive: -0.081 | inactive: 0.009 | inactive: -0.013 | – | inactive: -0.003 | inactive: -0.026 | – | inactive: -0.039 | inactive: -0.071
SNTA1 (UniProt Q13424) | inactive: -0.097 | inactive: 0.037 | inactive: -0.102 | inactive: 0.018 | inactive: -0.033 | inactive: 0.056 | inactive: 0.214 | inactive: -0.13 | – | inactive: -0.305 | – | inactive: -0.08 | inactive: -0.006 | inactive: 0.03 | – | inactive: -0.106 | inactive: -0.116 | inactive: 0.143 | inactive: -0.263 | inactive: 0.133
SNX3 (UniProt O60493) | inactive: -0.013 | inactive: -0.064 | inactive: 0.073 | inactive: -0.004 | inactive: 0.037 | inactive: 0.046 | inactive: 0.122 | inactive: 0.02 | inactive: 0.09 | inactive: 0.045 | inactive: -0.071 | inactive: -0.147 | inactive: 0.107 | inactive: -0.033 | – | inactive: 0.057 | inactive: 0.077 | – | inactive: 0.116 | inactive: -0.319
SLC7A6 (UniProt Q92536) | inactive: 0.021 | inactive: 0.027 | inactive: 0.023 | inactive: 0.017 | inactive: 0.05 | inactive: 0.03 | inactive: -0.046 | inactive: -0.005 | inactive: 0.012 | inactive: 0.036 | inactive: 0.048 | inactive: 0.042 | inactive: -0.099 | inactive: 0.211 | – | inactive: -0.018 | inactive: 0.04 | – | inactive: -0.036 | inactive: 0.122
SP100 isoform 4 (UniProt P23497) | inactive: 0.02 | inactive: -0.004 | inactive: 0.072 | inactive: -0.008 | inactive: -0.119 | inactive: -0.019 | inactive: 0.159 | inactive: 0 | inactive: -0.005 | inactive: 0.003 | inactive: -0.021 | inactive: -0.065 | inactive: 0.012 | inactive: -0.006 | – | inactive: 0.056 | inactive: -0.045 | – | inactive: -0.059 | inactive: -0.064
